For the test, the system named is P388 leukemia ip, CD2F1 mice, survival T/C. As to the kind of experiment: NCI In Vivo Anticancer Drug Screen. Data for tumor model P388 Leukemia (intraperitoneal) in CD2F1 (CDF1) mice. The note with it: T/C endpoint: median survival time, higher T/C = longer survival.
Setting [1] is: dose: 50.0 mg/kg/injection, schedule: Q01DX005 (ip), vehicle: saline with Tween-80.
Where [2] appears, read: dose: 100.0 mg/kg/injection, schedule: Q01DX005 (ip), vehicle: saline with Tween-80.
The mark [3] stands for this setting: dose: 200.0 mg/kg/injection, schedule: Q01DX005 (ip), vehicle: saline with Tween-80.
Where [4] appears, read: dose: 0.78 mg/kg/injection, schedule: Q01DX009 (ip), vehicle: Klucel (hydroxypropylcellulose) (HPC).
[5] abbreviates: dose: 1.56 mg/kg/injection, schedule: Q01DX009 (ip), vehicle: Klucel (hydroxypropylcellulose) (HPC).
Setting [6] is: dose: 6.25 mg/kg/injection, schedule: Q01DX009 (ip), vehicle: Klucel (hydroxypropylcellulose) (HPC).
Where [7] appears, read: dose: 12.5 mg/kg/injection, schedule: Q01DX009 (ip), vehicle: Klucel (hydroxypropylcellulose) (HPC).
Setting [8] is: dose: 25.0 mg/kg/injection, schedule: Q01DX009 (ip), vehicle: Klucel (hydroxypropylcellulose) (HPC).
[9] abbreviates: dose: 50.0 mg/kg/injection, schedule: Q01DX009 (ip), vehicle: Klucel (hydroxypropylcellulose) (HPC).
The mark [10] stands for this setting: dose: 100.0 mg/kg/injection, schedule: Q01DX009 (ip), vehicle: Klucel (hydroxypropylcellulose) (HPC).
Setting [11] is: dose: 200.0 mg/kg/injection, schedule: Q01DX009 (ip), vehicle: Klucel (hydroxypropylcellulose) (HPC).
Setting [12] is: dose: 12.5 mg/kg/injection, schedule: Q01DX009 (ip), vehicle: saline with Tween-80.
Where [13] appears, read: dose: 5.0 mg/kg/injection, schedule: Q01DX009 (ip), vehicle: Klucel (hydroxypropylcellulose) (HPC).

SMILES strings stand for the structures. The list shows only some results of the screen, not a fair sample: it covers a few groups of compounds. Other doses and runs of a compound may be missing. T/C: endpoint of the treated group in % of that of the vehicle group. Some doses have a count of surviving animals in place of a T/C: the source holds a T/C of zero for them, seemingly a mark for toxic or unscored doses. Some doses without a T/C left all or most animals alive at the check, yet need not have been tolerated: survival well below the control is almost never listed, so the zero probably covers shortened survival too. Counts of survivors are from the toxicity check (mostly the fifth day) where no day follows; animals may have died later. Schedule codes are those of the source, taken here to give the interval after Q, in days (D) or hours (H), and the number of doses after X. For survival time, the PubChem record calls one and a half times the control and up active, and a quarter to a half above the control has no call in these data; cut-offs in other NCI protocols can differ. Some T/C values carry the count of animals alive at the toxicity check (mostly the fifth day); without a count or a note in brackets, all were alive then. Some entries hold several experiments; the results are listed from low to high. Some entries show no survivor count and are marked so; the dose need not have been tolerated. Some complexes appear as separate parts, the way the source draws them; their charges need not add up. Counts like (3×) stand for listed records that agree.

Regarding `CN1CC=CCC1c1ccccc1.O=[N+]([O-])c1cc([N+](=O)[O-])c(O)c([N+](=O)[O-])c1`, the T/C under setting [1] is 108 % of control [5 of 6 alive] and the T/C under setting [2] is 106 % of control [5 of 6 alive]. Besides, the survivor count under setting [3] is on record as 0 of 6.

For the compound `Cc1cc(N(CCCl)CCCl)ccc1N`, the T/C (dose: 0.39 mg/kg/injection, schedule: Q01DX009 (ip), vehicle: Klucel (hydroxypropylcellulose) (HPC)) is 109 % of control; the T/C under setting [4] was 135 and 158 % of control; the T/C under setting [5] is 127 and 180 % of control. In addition, the survivor count (dose: 3.13 mg/kg/injection, schedule: Q01DX009 (ip), vehicle: Klucel (hydroxypropylcellulose) (HPC)) is 6 of 6; the survivor count under setting [6] is listed as 6 of 6; the survivor count under setting [7] is given as 0 of 6; the survivor count under setting [8] is listed as 0 of 6.

Turning to `O=C(C(=O)c1c([N+](=O)[O-])cc([N+](=O)[O-])cc1[N+](=O)[O-])c1c([N+](=O)[O-])cc([N+](=O)[O-])cc1[N+](=O)[O-]`, the T/C runs as follows: (dose: 100.0 mg/kg/injection, schedule: Q04DX003 (ip), vehicle: saline) 94 % of control; (dose: 200.0 mg/kg/injection, schedule: Q04DX003 (ip), vehicle: saline) 93 % of control; (dose: 400.0 mg/kg/injection, schedule: Q04DX003 (ip), vehicle: saline) 89 % of control.

Consider `COc1cc([N+](=O)[O-])c([N+](=O)[O-])cc1N`, for which the T/C is 101 % of control (dose: 60.0 mg/kg/injection, schedule: Q01DX005 (ip), vehicle: saline); 103 % of control (dose: 120.0 mg/kg/injection, schedule: Q01DX005 (ip), vehicle: saline); 101 % of control (dose: 240.0 mg/kg/injection, schedule: Q01DX005 (ip), vehicle: saline).

Turning to `NC(N)=NP(=O)(Oc1ccccc1)Oc1ccccc1`, the T/C was 112 % of control under setting [9], 101 % of control under setting [10] and 113 % of control under setting [11].

For the compound `CC(C)OP(C)(=O)O.[Y]`, the T/C under setting [12] is 87 % of control [survivor count not shown]; the T/C (dose: 25.0 mg/kg/injection, schedule: Q01DX009 (ip), vehicle: saline with Tween-80) was 96 [survivor count not shown] and 98 % of control [survivor count not shown]; the T/C (dose: 50.0 mg/kg/injection, schedule: Q01DX009 (ip), vehicle: saline with Tween-80) is 86 [survivor count not shown] and 91 % of control [survivor count not shown]; the T/C (dose: 100.0 mg/kg/injection, schedule: Q01DX009 (ip), vehicle: saline with Tween-80) is 92 % of control [survivor count not shown]; the T/C (dose: 200.0 mg/kg/injection, schedule: Q01DX009 (ip), vehicle: saline with Tween-80) was 94 % of control [survivor count not shown].

As for `NC(=O)Nc1ccc(N(CCCl)CCCl)cc1`, the T/C by setting is: under setting [4], 109 % of control; under setting [5], 108 % of control; (dose: 3.12 mg/kg/injection, schedule: Q01DX009 (ip), vehicle: Klucel (hydroxypropylcellulose) (HPC)) 123 and 183 % of control; under setting [6], 125 and 183 % of control; under setting [7], 144 and 204 % of control; under setting [8], 97, 100, 110 % of control. The survivor count runs as follows: under setting [9], 6 of 6; under setting [10], 3 of 6; under setting [11], 0 of 6.

As for `CN=C(Nc1ccccc1)NP(=O)(Nc1ccccc1)Nc1ccccc1`, the T/C reads like this: (dose: 12.5 mg/kg/injection, schedule: Q01DX009 (ip), vehicle: distilled water + Tween-80) 96 % of control; (dose: 25.0 mg/kg/injection, schedule: Q01DX009 (ip), vehicle: distilled water + Tween-80) 96 % of control; (dose: 100.0 mg/kg/injection, schedule: Q01DX009 (ip), vehicle: distilled water + Tween-80) 86 % of control [5 of 6 alive]; (dose: 200.0 mg/kg/injection, schedule: Q01DX009 (ip), vehicle: distilled water + Tween-80) 86 % of control. Also, the survivor count (dose: 50.0 mg/kg/injection, schedule: Q01DX009 (ip), vehicle: distilled water + Tween-80) is 6 of 6.

As to `Cc1ccc2ccccc2n1.O=[N+]([O-])c1cc([N+](=O)[O-])c(O)c([N+](=O)[O-])c1`, the T/C (dose: 37.5 mg/kg/injection, schedule: Q01DX009 (ip), vehicle: saline with Tween-80) was 96 % of control [survivor count not shown]; the T/C (dose: 75.0 mg/kg/injection, schedule: Q01DX009 (ip), vehicle: saline with Tween-80) was 100 % of control [survivor count not shown]; the T/C (dose: 150.0 mg/kg/injection, schedule: Q01DX009 (ip), vehicle: saline with Tween-80) was 100 % of control [survivor count not shown].

Regarding `CC(C)OP(C)(=O)O.[Ga]`, the T/C is 105 % of control [survivor count not shown] (dose: 25.0 mg/kg/injection, schedule: Q01DX001 (ip), vehicle: saline with Tween-80); 103 % of control [survivor count not shown] (dose: 50.0 mg/kg/injection, schedule: Q01DX001 (ip), vehicle: saline with Tween-80); 109 % of control [survivor count not shown] (dose: 100.0 mg/kg/injection, schedule: Q01DX001 (ip), vehicle: saline with Tween-80); 100 % of control [survivor count not shown] (dose: 200.0 mg/kg/injection, schedule: Q01DX001 (ip), vehicle: saline with Tween-80); 95 % of control [survivor count not shown] (dose: 400.0 mg/kg/injection, schedule: Q01DX001 (ip), vehicle: saline with Tween-80).

`ClCCN1CCn2cnc3ncnc-3c21`: the T/C is 101 % of control (dose: 50.0 mg/kg/injection, schedule: Q01DX005 (ip), vehicle: saline); 104 % of control (dose: 100.0 mg/kg/injection, schedule: Q01DX005 (ip), vehicle: saline); 101 % of control (dose: 200.0 mg/kg/injection, schedule: Q01DX005 (ip), vehicle: saline).

With `COc1cccc(OC)c1N(CCCl)CCCl`, the T/C was 131 % of control (dose: 0.62 mg/kg/injection, schedule: Q01DX009 (ip), vehicle: Klucel (hydroxypropylcellulose) (HPC)); 88 and 135 % of control (dose: 1.25 mg/kg/injection, schedule: Q01DX009 (ip), vehicle: Klucel (hydroxypropylcellulose) (HPC)); 146 and 207 % of control [5 of 6 alive] (dose: 2.5 mg/kg/injection, schedule: Q01DX009 (ip), vehicle: Klucel (hydroxypropylcellulose) (HPC)); 94 % of control under setting [13]. Besides, the survivor count is, setting by setting: under setting [13], 6 of 6; (dose: 10.0 mg/kg/injection, schedule: Q01DX009 (ip), vehicle: Klucel (hydroxypropylcellulose) (HPC)) 6 of 6.

With `O=c1oc(NCCCl)nc2ccccc12`, the T/C was 107 % of control (dose: 25.0 mg/kg/injection, schedule: Q01DX005 (ip), vehicle: saline with Tween-80); 100 % of control under setting [1]; 101 % of control under setting [2]; 108 % of control under setting [3].

For `CP(=O)(O)O.[Cu+2]`, the T/C runs as follows: (dose: 6.25 mg/kg/injection, schedule: Q01DX009 (ip), vehicle: saline with Tween-80) 94 % of control [survivor count not shown]; under setting [12], 100 % of control [survivor count not shown] (2×).

The values above are taken from PubChem BioAssay AID330 (DTP/NCI, 2004).
